Test results published in PubChem BioAssay AID2685 (National Center for Advancing Translational Sciences (NCATS), 2010).
The other results are listed elsewhere or left out. Further columns of the screen follow, without active or inactive calls. The list favours compounds with an active or inconclusive main result. The note in brackets gives the kind of curve behind each potency; many fits are weak.

Assay: qHTS Assay for Lipid Storage Modulators in Drosophila S3 Cells;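 as to cell number change: cells counted by Cell Tracker Red CMTPX staining in the red channel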
Details: BODIPY lipid droplet fluorescence, 18-24 h; for cell number change: measured here: cell count max response, cells fed with added oleic acid
Procedure, shortened: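 Laser-scanning cytometry quantifies lipid droplet accumulation (500–530 nm total intensity; droplet/cell object ratio) in oleic acid-fed (400 uM added) Drosophila S3 cells treated with a concentration series. 20 uM Triacsin C defined 100% inhibition.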

[1] = measured here: lipid fluorescence (Fed channel) AC50, cells fed with added oleic acid
[2] = measured here: cell number channel AC50, cells fed with added oleic acid

CCOc1ccc2[nH]c(=O)c(CN(Cc3ccco3)C(CC)c3nnnn3Cc3ccccc3)cc2c1 (configuration not stated)
cell number change: -23.7%
AC50 [1]: 0.517 µM [rising, full curve, poor fit]

O=C1c2ccncc2C(=O)N1Cc1cccc(Cl)c1
cell number change: -62.6%
AC50 [2]: 25.9 µM [falling, partial curve, poor fit]

N#Cc1c(N)c(C#N)c(-c2ccc3c(c2)OCO3)c2c1CCCC2
cell number change: 12.2%

CCOC(=O)c1ccc(NC(=O)CSc2nnc(-c3cccs3)n2CC)cc1
cell number change: -24.7%
AC50 [1]: 29.1 µM [rising, single point]

Cc1cccc(NC(=O)c2oc(=O)c3ccccc3c2-c2ccccc2)c1C
cell number change: 47.6%
AC50 [2]: 1.16 µM [rising, partial curve, poor fit]

O=[N+]([O-])c1cc(CN2CCCC2)c2cccnc2c1O
cell number change: 3.38%
AC50 [1]: 3.66 µM [rising, single point]

CCOC(=O)Cn1c2c(c(-c3ccccc3OC)cc1=O)CCCC2
cell number change: 15.8%
AC50 [1]: 6.51 µM [falling, single point]

CCC(=O)c1ccc(OCC(O)CN(C)C2CCCCC2)cc1 (configuration not stated)
cell number change: -133%
AC50 [2]: 18.4 µM [falling, partial curve]
AC50 [1]: 18.4 µM [falling, partial curve]

COC(CC(=O)NNC(=S)Nc1ccccc1)OC
cell number change: -2.17%
AC50 [1]: 0.184 µM [falling, partial curve, poor fit]

COc1ccc(C(=O)N2CCCC(O)C2)cc1OC1CCN(C(C)C)CC1 (configuration not stated)
cell number change: 6.36%

CCOC(=O)N1CCN(C(=O)c2cccn3c(=O)c4cc(Br)ccc4nc23)CC1
cell number change: 0.86%
AC50 [2]: 0.116 µM [falling, full curve, poor fit]

CC(C)c1nc(C#N)c(N2CCOCC2)o1
cell number change: -7.15%
AC50 [1]: 0.82 µM [falling, full curve, poor fit]

Cc1cc(N/N=C/c2ccccc2)nc(NCc2ccccc2)n1
cell number change: -55.3%
AC50 [2]: 32.6 µM [falling, partial curve, poor fit]
AC50 [1]: 29.1 µM [falling, single point]

CCOC(=O)C(Cc1ccc(N)cc1)N1C(=O)c2ccccc2C1=O (configuration not stated)
cell number change: -19.4%
AC50 [1]: 8.2 µM [falling, partial curve, poor fit]

CCN(CC)S(=O)(=O)c1ccc(C)c(NC(=S)N2CCN(c3ccccn3)CC2)c1
cell number change: -13.2%

Cc1nc(NC(=O)CSc2nc3cccnc3n2Cc2ccccc2)sc1C
cell number change: -74.8%
AC50 [2]: 29.1 µM [falling, single point]
AC50 [1]: 29.1 µM [falling, single point]

CC12CN(NC(=O)c3ccccc3F)C3(C#N)CC1CCC23C (configuration not stated)
cell number change: -22.9%
AC50 [1]: 0.517 µM [falling, partial curve, poor fit]

CCCCCCCNC(=O)COc1ccc2c(c1)C(=O)CC(C)(C)O2
cell number change: -23.2%
AC50 [2]: 0.651 µM [falling, full curve, poor fit]
AC50 [1]: 6.51 µM [falling, partial curve]

CC(C)(C)N1C(=O)[C@H]2[C@@H](c3ccc(Br)cc3)N3C(=O)N(c4cccc(F)c4)C(=O)[C@@]3(C)[C@H]2C1=O
cell number change: 12%
AC50 [2]: 0.517 µM [falling, full curve]
AC50 [1]: 0.82 µM [falling, full curve, poor fit]

COc1ccc(Cl)cc1N(CC(=O)N/N=C/c1ccc(OC(C)C)cc1)S(=O)(=O)c1ccc(C)c([N+](=O)[O-])c1
cell number change: 3.65%
AC50 [1]: 0.146 µM [rising, full curve, poor fit]

COc1ccc(CCCc2nnc(SCC(=O)Nc3ncc(C)s3)o2)cc1
cell number change: -48.5%

CCCCC1NC(=S)N(C2CCCCC2)C1=O (configuration not stated)
cell number change: -20.1%

CN1C(=O)c2ccc(C(=O)Nc3ccccc3O)cc2C1=O
cell number change: -2.11%
AC50 [1]: 13 µM [rising, partial curve]

Cc1csc(NC(=O)CSCc2c(C)noc2C)n1
cell number change: 45.6%
AC50 [2]: 16.4 µM [rising, single point]

Cc1c(C)n(CCC(=O)O)c2ccccc12
cell number change: -2.2%
AC50 [2]: 0.184 µM [falling, full curve, poor fit]

Cc1ccc2oc(=O)n(CC(=O)N3CCOCC3)c2c1
cell number change: 11.6%
AC50 [2]: 0.58 µM [falling, full curve, poor fit]
AC50 [1]: 0.517 µM [falling, full curve]

CNc1c(NS(=O)(=O)c2ccc(Br)cc2)c(=O)oc2ccccc12
cell number change: 23.5%

COCCCNC(=O)Cn1ncc2ccsc2c1=O
cell number change: -4.63%
AC50 [1]: 18.4 µM [falling, single point]

Cc1ccc(S(=O)(=O)N2CCC(=O)N(C(COCc3cccc(C)c3)C(C)C)CC2)cc1 (configuration not stated)
cell number change: -15.1%
AC50 [1]: 8.2 µM [rising, partial curve]

CSc1ncccc1C(=O)OCC(=O)NC1CCCCC1
cell number change: 8.23%
AC50 [1]: 6.51 µM [falling, single point]

COc1ccccc1N1CCN(CC(O)COc2ccc3c(c2)OCO3)CC1 (configuration not stated)
cell number change: 53.1%
AC50 [2]: 29.1 µM [rising, single point]

Cc1ccc(S(=O)(=O)N2CCN(C(=O)COC(=O)CSc3cc(C)ccc3C)CC2)c(C)c1
cell number change: 20.6%
AC50 [2]: 0.103 µM [rising, full curve, poor fit]
AC50 [1]: 0.13 µM [rising, full curve]

C=CCNC(=O)CN1CCN(C(c2ccccc2)c2ccccc2)CC1
cell number change: -38.6%
AC50 [2]: 11.6 µM [falling, partial curve]

COc1ccc(CCNC(=O)C(=O)NCc2ccccc2C)cc1OC
cell number change: 76%
AC50 [1]: 29.1 µM [rising, single point]

CC12C(=O)N(CCC(=O)O)C(=O)C1C1C=CC2C1 (configuration not stated)
cell number change: -13.8%
AC50 [2]: 0.0517 µM [falling, full curve, poor fit]
AC50 [1]: 23.1 µM [falling, partial curve]

O=CNc1ccc(S(=O)(=O)NCc2ccccc2)cc1
cell number change: 39.1%
AC50 [2]: 16.4 µM [rising, single point]

COc1cc(OC)c(C2C(C(=O)N3CCOCC3)=C(C)NC3=C2C(=O)CC(C)(C)C3)cc1OC (configuration not stated)
cell number change: -61%
AC50 [2]: 29.1 µM [falling, single point]
AC50 [1]: 29.1 µM [falling, partial curve]
